The values that follow come from PMC8555152.

By UniProt entry, the sequences of proteins in these tests, tags left out.
UniProt P10415: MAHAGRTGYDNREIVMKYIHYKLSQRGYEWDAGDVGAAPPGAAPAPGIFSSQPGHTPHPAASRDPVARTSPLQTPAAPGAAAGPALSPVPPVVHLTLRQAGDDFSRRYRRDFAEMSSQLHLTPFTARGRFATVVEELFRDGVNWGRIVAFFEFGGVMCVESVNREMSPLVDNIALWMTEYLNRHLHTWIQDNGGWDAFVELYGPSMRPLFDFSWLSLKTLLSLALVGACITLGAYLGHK
UniProt Q14457: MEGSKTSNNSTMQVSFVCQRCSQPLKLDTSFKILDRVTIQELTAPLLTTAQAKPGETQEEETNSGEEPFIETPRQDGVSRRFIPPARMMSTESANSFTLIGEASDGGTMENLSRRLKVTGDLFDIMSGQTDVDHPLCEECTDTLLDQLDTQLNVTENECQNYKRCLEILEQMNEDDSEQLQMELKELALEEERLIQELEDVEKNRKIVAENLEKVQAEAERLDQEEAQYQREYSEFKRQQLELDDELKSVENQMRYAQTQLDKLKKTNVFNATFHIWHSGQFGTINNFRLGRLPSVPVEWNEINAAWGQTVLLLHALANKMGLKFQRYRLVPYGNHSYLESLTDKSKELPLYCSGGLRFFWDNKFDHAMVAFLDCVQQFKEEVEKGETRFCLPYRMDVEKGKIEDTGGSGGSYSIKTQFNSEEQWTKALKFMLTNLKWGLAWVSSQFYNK

These are yes or no findings as the source states them, for the method shown. Binding seen in cells or lysates may run through a third protein. Some results given as binding are weak or reduced against the parent protein; the word gives no strength.

This test has as its target BCL2, endogenous (human (endogenous in HEK293T)) (UniProt P10415). The test can be described thus: co-IP.

In the case of “BECN1-Flag (pcDNA4-BECN1-Flag) (from UniProt Q14457 1-450)”, the binding result is listed as “binds”.
